Experimental data: publication PMC5013389, “Competition between members of the tribbles pseudokinase protein family shapes their interactions with mitogen activated protein kinase pathways” (Scientific Reports, 2016)
No constants are given. Whether binding was seen depends on the method and setting. In cells and extracts the contact can be indirect. For part of these data: Binding can be weak; no strength is given. Where a sequence is shown, tags or fusion partners need not be part of it. One block for each molecule: values may come before it.

Columns and labels:
Assay in all cases: split reporter; Venus YFP protein-fragment complementation assay (PCA): MKK-V1 and TRIB-V2 constructs (full length or truncated) co-transfected into HeLa cells, fluorescent complexes seen by fluorescence microscopy
[1] = biological target: T1, MKK6-V1 (full length MKK6 fused to the V1 fragment of Venus YFP) (UniProt P52564)
T1 sequence: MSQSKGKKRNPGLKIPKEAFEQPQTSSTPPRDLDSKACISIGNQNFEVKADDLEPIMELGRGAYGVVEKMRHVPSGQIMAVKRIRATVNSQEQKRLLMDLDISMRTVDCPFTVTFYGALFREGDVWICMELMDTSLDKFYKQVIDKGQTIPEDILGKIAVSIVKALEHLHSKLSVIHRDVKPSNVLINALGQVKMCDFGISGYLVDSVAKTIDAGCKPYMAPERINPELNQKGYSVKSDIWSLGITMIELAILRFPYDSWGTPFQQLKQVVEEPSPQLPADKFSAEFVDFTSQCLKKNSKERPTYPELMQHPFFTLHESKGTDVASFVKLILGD

[2] = biological target: T2, MKK4-V1 (full length MKK4 fused to the V1 fragment of Venus YFP) (UniProt P45985)
T2 sequence: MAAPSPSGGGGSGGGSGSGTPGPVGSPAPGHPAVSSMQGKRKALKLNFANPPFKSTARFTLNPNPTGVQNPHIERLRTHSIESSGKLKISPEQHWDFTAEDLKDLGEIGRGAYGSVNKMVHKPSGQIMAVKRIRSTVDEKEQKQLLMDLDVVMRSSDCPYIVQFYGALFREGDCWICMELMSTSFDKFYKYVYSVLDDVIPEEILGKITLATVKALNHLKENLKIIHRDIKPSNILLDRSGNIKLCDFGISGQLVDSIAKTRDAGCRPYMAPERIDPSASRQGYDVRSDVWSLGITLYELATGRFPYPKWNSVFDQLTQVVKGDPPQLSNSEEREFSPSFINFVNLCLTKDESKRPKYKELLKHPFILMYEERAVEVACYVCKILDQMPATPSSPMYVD

[3] = biological target: MKK7 with the C-terminal domain deleted, PCA construct
[4] = biological target: MKK7 with the N-terminal domain deleted (MAPKKΔN mutant), PCA construct
[5] = biological target: MKK6 with the C-terminal domain deleted, PCA construct
[6] = biological target: MKK6 with the N-terminal domain deleted (MAPKKΔN mutant), PCA construct

binding [1]: binds
Molecule: TRIB1ΔN (TRIB1 with the N-terminal domain deleted), PCA construct (domain or fragment)

binding [1]: binds
Molecule: TRIB2 with the N-terminus deleted, PCA construct (domain or fragment)

binding [1]: binds
Molecule: TRIB3 with the C-terminal domain deleted, PCA construct (domain or fragment)

Second part, the molecule before the results:

Molecule: TRIB1 with the C-terminal domain deleted, PCA construct (domain or fragment)
binding [1]: binds

Molecule: TRIB2 with the C-terminus deleted, PCA construct (domain or fragment)
binding [1]: binds
binding [2]: binds

Molecule: TRIB3ΔN (TRIB3 with the N-terminal domain deleted), PCA construct (domain or fragment)
binding [1]: binds

B1: TRIB1-V2 (full length tribbles-1 fused to the V2 fragment of Venus YFP) (protein, UniProt Q96RU8 1-372)
chain: MRVGPVRSAMSGASQPRGPALLFPATRGVPAKRLLDADDAAAVAAKCPRLSECSSPPDYLSPPGSPCSPQPPPAAPGAGGGSGSAPGPSRIADYLLLPLAEREHVSRALCIHTGRELRCKVFPIKHYQDKIRPYIQLPSHSNITGIVEVILGETKAYVFFEKDFGDMHSYVRSRKRLREEEAARLFKQIVSAVAHCHQSAIVLGDLKLRKFVFSTEERTQLRLESLEDTHIMKGEDDALSDKHGCPAYVSPEILNTTGTYSGKAADVWSLGVMLYTLLVGRYPFHDSDPSALFSKIRRGQFCIPEHISPKARCLIRSLLRREPSERLTAPEILLHPWFESVLEPGYIDSEIGTSDQIVPEYQEDSDISSFFC
binding [3]: no binding
binding [4]: no binding
binding [5]: binds
binding [6]: no binding

B2: TRIB2-V2 (full length tribbles-2 fused to the V2 fragment of Venus YFP) (protein, UniProt Q92519 1-343)
chain: MNIHRSTPITIARYGRSRNKTQDFEELSSIRSAEPSQSFSPNLGSPSPPETPNLSHCVSCIGKYLLLEPLEGDHVFRAVHLHSGEELVCKVFDISCYQESLAPCFCLSAHSNINQITEIILGETKAYVFFERSYGDMHSFVRTCKKLREEEAARLFYQIASAVAHCHDGGLVLRDLKLRKFIFKDEERTRVKLESLEDAYILRGDDDSLSDKHGCPAYVSPEILNTSGSYSGKAADVWSLGVMLYTMLVGRYPFHDIEPSSLFSKIRRGQFNIPETLSPKAKCLIRSILRREPSERLTSQEILDHPWFSTDFSVSNSAYGAKEVSDQLVPDVNMEENLDPFFN
binding [3]: no binding
binding [4]: no binding
binding [5]: binds
binding [6]: no binding
